Test results as given in PubChem BioAssay AID504467 (National Center for Advancing Translational Sciences (NCATS), 2011).
In all, about 330,000 compounds went through this assay and about 7,700 (2.3%) were called active. Inconclusive means that the source gave no clear call. Such entries were picked first, then a sample of the others. Calls come from the whole dose curve; as a rule, active = well fitted inhibition curve with a large enough effect; inconclusive = small, poorly fitted or top-dose-only effect, or effect the other way; inactive = flat fitted curve, though single readings scatter. Potencies beside an inconclusive call are fits to weak or partial responses and may not hold up.

assay: qHTS screen for small molecules that inhibit ELG1-dependent DNA repair in human embryonic kidney (HEK293T) cells expressing luciferase-tagged ELG1; conditions: HEK293T ELG1-luciferase reporter, luminescence, 16 h, DNA damage induced by 5-fluorouridine; activity change, negative = inhibition: at 46.1 µM (top of the series); note: nearly all actives have a fitted effect of over 55% in size
How it was run: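 HEK293T cells expressing luciferase-tagged ELG1 (2,000/well) received 5-Fluorouridine plus compound or DMSO for 16 hr at 37 °C. Luciferase was read by ONE-Glo luminescence after 30 min at room temperature.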
% is set by controls: 0 for no effect and ±100 for the full control effect; potency is the fitted concentration of half-maximal effect.

Row | Compound | Potency | activity change, negative = inhibition
1 | Cc1cccc(NC(=O)N2CCN(Cc3ccc(Cl)cc3)CC2)c1 | inconclusive: 13 µM [inhibitor, partial curve] | 
2 | C=C[C@](C)(CC[C@@]1(C)C(C)CC(OC2OC(C)C(OC3OC(COC(C)=O)C(O)C(O)C3O)C(O)C2O)[C@@]2(C)C(C)=CCCC12)OC1OC(C)C(O[C@@H]2O[C@@H](C)C(O)C(O)[C@H]2O)C(O)C1O (some centres undefined) | inconclusive: 20.6 µM [activator, single point] | 
3 | Cc1cccc(N/N=C2/COC(C)(C)CC2=O)c1 | inconclusive: 7.31 µM [activator, partial curve] | 
4 | COc1ccc(CNC(=O)Cn2nc(C)c3c(C)n(-c4ccc(C)cc4)nc3c2=O)cc1OC | active: 20.6 µM | 
5 | O=C(CN1CC[n+]2c(-c3ccccc3)csc21)c1ccc(Br)cc1 | active: 16.4 µM | 
6 | Cc1c(C(=O)N2CCN(C)CC2)oc2ccc(Br)cc12 | inconclusive: 16.4 µM [activator, partial curve] | 
7 | CCOP(=O)(OCC)C(Nc1cccc([N+](=O)[O-])c1)c1ccc(N(C)C)cc1 (centres undefined) | inconclusive: 23.1 µM [inhibitor, single point] | 
8 | Cc1oc2cc(Br)c(O)c(Br)c2c1-c1ccccc1 | inconclusive: 9.2 µM [activator, partial curve, poor fit] | 
9 | Cc1nc(-c2ccc(NC(=O)c3ccc(Br)o3)cc2)cs1 | inconclusive: 1.3 µM [activator, full curve] | 
10 | O=C(NCCCN1CCOCC1)c1cc(-c2ccc3c(c2)OCO3)nc2ccccc12 |  | inactive: -11.2%
11 | Cc1ccc(SCC(=O)OCC(=O)NCCc2ccccc2)cc1C | inconclusive: 20 µM [activator, single point] | 
12 | COC(=O)/C(C#N)=C/c1c(N2CCN(c3ccc(OC)cc3)CC2)nc2c(C)cccn2c1=O | inconclusive: 23.1 µM [inhibitor, single point] | 
13 | CN(C(=O)c1cccc(NC(=O)C2CCCN(C(=O)OC(C)(C)C)C2)c1)C1CCC1 (centres undefined) | inconclusive: 29.1 µM [inhibitor, single point] | 
14 | COc1ccc(N(CC(=O)Nc2cccc(C(C)=O)c2)S(=O)(=O)c2ccc(NC(C)=O)cc2)cc1 | inconclusive: 10 µM [inhibitor, partial curve, poor fit] | 
15 | Cc1onc(-c2ccccc2Cl)c1C(=O)NCc1nc(-c2ccc(C(F)(F)F)cc2)no1 | active: 14.6 µM | 
16 | O=C(COc1ccc2ccccc2c1Br)NCc1ccccn1 | inconclusive: 16.4 µM [activator, single point] | 
17 | CC(=O)C1=C(O)CC(c2ccccc2)CC1=NCCc1c(C)[nH]c2ccccc12 (centres undefined) | inconclusive: 29.1 µM [inhibitor, single point] | 
18 | CCOc1cccc(-c2c(C(=O)N/N=C/c3ccncc3)nnn2-c2nonc2N)c1 | inconclusive: 18.3 µM [inhibitor, single point] | 
19 | O=C(COc1ccc([N+](=O)[O-])cc1Cl)NCCc1ccccc1 |  | inactive: 7.63%
20 | CN(CCCC1CCCC1)C(=O)c1cc(COc2ccc(F)c(F)c2)on1 |  | inactive: -3.47%
21 | Cc1nnsc1C(=O)Nc1ccc(S(=O)(=O)N2CCC(C)CC2)cc1 | active: 7.3 µM | 
22 | CC1=C(C)[N+](=O)C2CCCCC2N1[O-] (centres undefined) |  | inactive: 1.32%
23 | COC(=O)c1ccc2c(=O)[nH]c(CSc3nnc(C(F)(F)F)n3C)nc2c1 |  | inactive: -14.8%

16 of the compounds above, in markdown:

| Row | Compound | Potency | activity change, negative = inhibition |
| --- | --- | --- | --- |
| 8 | Cc1oc2cc(Br)c(O)c(Br)c2c1-c1ccccc1 | inconclusive: 9.2 µM [activator, partial curve, poor fit] |  |
| 9 | Cc1nc(-c2ccc(NC(=O)c3ccc(Br)o3)cc2)cs1 | inconclusive: 1.3 µM [activator, full curve] |  |
| 10 | O=C(NCCCN1CCOCC1)c1cc(-c2ccc3c(c2)OCO3)nc2ccccc12 |  | inactive: -11.2% |
| 11 | Cc1ccc(SCC(=O)OCC(=O)NCCc2ccccc2)cc1C | inconclusive: 20 µM [activator, single point] |  |
| 12 | COC(=O)/C(C#N)=C/c1c(N2CCN(c3ccc(OC)cc3)CC2)nc2c(C)cccn2c1=O | inconclusive: 23.1 µM [inhibitor, single point] |  |
| 13 | CN(C(=O)c1cccc(NC(=O)C2CCCN(C(=O)OC(C)(C)C)C2)c1)C1CCC1 (centres undefined) | inconclusive: 29.1 µM [inhibitor, single point] |  |
| 14 | COc1ccc(N(CC(=O)Nc2cccc(C(C)=O)c2)S(=O)(=O)c2ccc(NC(C)=O)cc2)cc1 | inconclusive: 10 µM [inhibitor, partial curve, poor fit] |  |
| 15 | Cc1onc(-c2ccccc2Cl)c1C(=O)NCc1nc(-c2ccc(C(F)(F)F)cc2)no1 | active: 14.6 µM |  |
| 16 | O=C(COc1ccc2ccccc2c1Br)NCc1ccccn1 | inconclusive: 16.4 µM [activator, single point] |  |
| 17 | CC(=O)C1=C(O)CC(c2ccccc2)CC1=NCCc1c(C)[nH]c2ccccc12 (centres undefined) | inconclusive: 29.1 µM [inhibitor, single point] |  |
| 18 | CCOc1cccc(-c2c(C(=O)N/N=C/c3ccncc3)nnn2-c2nonc2N)c1 | inconclusive: 18.3 µM [inhibitor, single point] |  |
| 19 | O=C(COc1ccc([N+](=O)[O-])cc1Cl)NCCc1ccccc1 |  | inactive: 7.63% |
| 20 | CN(CCCC1CCCC1)C(=O)c1cc(COc2ccc(F)c(F)c2)on1 |  | inactive: -3.47% |
| 21 | Cc1nnsc1C(=O)Nc1ccc(S(=O)(=O)N2CCC(C)CC2)cc1 | active: 7.3 µM |  |
| 22 | CC1=C(C)[N+](=O)C2CCCCC2N1[O-] (centres undefined) |  | inactive: 1.32% |
| 23 | COC(=O)c1ccc2c(=O)[nH]c(CSc3nnc(C(F)(F)F)n3C)nc2c1 |  | inactive: -14.8% |

The listing continues.

Row | Compound | Potency | activity change, negative = inhibition
24 | Cc1cccc(NC(=O)C2CCCN(S(=O)(=O)c3cccc4cccnc34)C2)c1 (centres undefined) | inconclusive: 29.1 µM [inhibitor, single point] | 
25 | COc1ccc(NC(=O)CSc2nc3nc(C)cc(C)c3c(=O)[nH]2)cc1 | inconclusive: 18.3 µM [activator, single point] | 
26 | COc1ccc(N)cc1-n1c(C)ccc1C | inconclusive: 20.6 µM [activator, partial curve, poor fit] | 
27 | CS(=O)(=O)Oc1ccc2c(c1)O/C(=C\C=C\c1ccccc1)C2=O |  | inactive: 3.03%
28 | COc1cccc(OCCc2c(C)n[nH]c2C)c1 | inconclusive: 32.6 µM [inhibitor, single point] | 
29 | COc1ccc(NC(=O)C2CC(=O)N(Cc3ccco3)C2)cc1Cl (centres undefined) | inconclusive: 8.2 µM [activator, partial curve] | 
30 | Cc1ccc(/C=C/C(=O)NC2=NCCS2)cc1 | inconclusive: 4.11 µM [activator, full curve] | 
31 | CCc1nc(SCC(=O)Nc2nccs2)c2oc3ccccc3c2n1 | inconclusive: 3.66 µM [inhibitor, partial curve, poor fit] | 
32 | Cc1cccn2c(CNC3CCCc4ccccc43)c(C(=O)N3CCCCC3)nc12 (centres undefined) | inconclusive: 16.4 µM [inhibitor, partial curve] | 
33 | COc1cccc(NC(=O)c2sc3nc(N4CCOCC4)c4c(c3c2N)CCCC4)c1 |  | inactive: -6.21%
34 | Cc1ccc(NC(=O)NC(=O)CN2C(=O)NC3(CCc4ccccc43)C2=O)c(C)c1 (centres undefined) | inconclusive: 29.1 µM [inhibitor, partial curve, poor fit] | 
35 | S=c1[nH]nc(CN2CCCCC2)n1Cc1ccccc1 |  | inactive: -21.7%
36 | Cc1ccc(OCC(O)CNCc2ccccc2)cc1C (centres undefined) |  | inactive: 1.84%
37 | COc1ccc2c(c1)CCc1c-2nc2ccccc2c1N1CCOCC1 |  | inactive: 6.48%
38 | C/C(=N\N1CCN(Cc2ccccc2Cl)CC1)c1ccc([N+](=O)[O-])cc1 | inconclusive: 20.6 µM [inhibitor, single point] | 
39 | CCNC(=O)Oc1ccc[nH]c1=O | inconclusive: 29.1 µM [inhibitor, single point] | 
40 | CCOc1cc(NC(=O)c2ccco2)c(OCC)cc1NC(=O)c1cc(OC)c(OC)c(OC)c1 | inconclusive: 1.84 µM [inhibitor, partial curve] | 
41 | Cc1ccc(C)c(NC(=O)CSc2nnc(-c3ccco3)o2)c1 | inconclusive: 6.51 µM [activator, partial curve, poor fit] | 
42 | Cc1ccc(-c2cc(C(=O)NCCCn3ccnc3)c3cc(Br)ccc3n2)o1 |  | inactive: 0.892%
43 | COc1ccc(-c2nc3ccccc3c(C(=O)Nc3ccc(S(=O)(=O)Nc4cc(C)on4)cc3)c2C)cc1 | active: 13 µM | 
44 | Cc1cc2c(c(/C=C/C(=O)c3ccccc3)c1)OC1(C=C2)Oc2ccccc2C(=O)N1C (centres undefined) | inconclusive: 23.1 µM [inhibitor, single point] | 
45 | Cc1cc(C)nc(SCC(=O)NNS(=O)(=O)c2ccc(C#N)cc2)n1 |  | inactive: -0.276%
46 | O=C(Nc1cccc(S(=O)(=O)N2CCCCCC2)c1)c1ccc2c(c1)OCO2 | inconclusive: 18.4 µM [inhibitor, single point] | 

Row | Compound | Potency | activity change, negative = inhibition
47 | Cc1ccc(C)c(NC(=O)CCN2C(=O)[C@@H]3Cc4ccccc4CN3C2=O)c1 | inconclusive: 0.259 µM [inhibitor, single point] | 
48 | COc1ccc(-c2csc(NCCn3c(C)nc4cc(C(F)(F)F)ccc43)n2)cc1 |  | inactive: 5.27%
49 | OCCC1CN(Cc2cccn2-c2cccnc2)CCN1C1CCCC1 (centres undefined) |  | inactive: 12.1%
50 | N#Cc1c(-c2cccs2)nc(SCc2ccc(Cl)cc2)[nH]c1=O |  | inactive: 5.24%
51 | O=C(Nc1nc2ccccc2[nH]1)c1ccc(Cl)c([N+](=O)[O-])c1 | inconclusive: 7.3 µM [activator, partial curve] | 
52 | CCC(=O)Nc1ccccc1C(=O)OC(c1ccccc1)c1ccccc1 |  | inactive: 19%
53 | COc1ccc(-c2nc(SC(C)C(=O)NC3CC3)n[nH]2)cc1 (centres undefined) | inconclusive: 20.6 µM [activator, single point] | 
54 | CCOC(=O)c1ccc(N=C2SC(C(=O)Nc3ccc(C(=O)O)cc3)CC(=O)N2Cc2cccs2)cc1 (centres undefined) |  | inactive: -14.5%
55 | O=C(COC(=O)CC1c2ccccc2CCN1S(=O)(=O)c1ccccc1)Nc1ccccc1 (centres undefined) | inconclusive: 23.1 µM [inhibitor, single point] | 
56 | Cc1ccc(F)cc1NC(=O)c1cccc(N(C)C)c1 | inconclusive: 20.6 µM [activator, single point] | 
57 | CC(=O)N(Cc1ccc(Br)cc1)c1ccccc1C(=O)O | inconclusive: 23.1 µM [activator, partial curve] | 
58 | Cc1nnc(NC(=O)c2ccc(S(=O)(=O)N3CCCCC3)cc2)s1 |  | inactive: 7.1%
59 | O=C(Nc1ccc2ccccc2c1)c1cccc(F)c1 | inconclusive: 4.11 µM [activator, full curve] | 
60 | O=C(NCCc1ccccn1)c1cc2ccccc2o1 | inconclusive: 18.3 µM [activator, partial curve] | 
61 | CC1(C)C(=O)N(c2ccccc2)C1c1ccccc1O (centres undefined) | inconclusive: 32.6 µM [inhibitor, partial curve, poor fit] | 
62 | CCOC(=O)C(=CNc1cccc(C)c1C)C(=O)OCC |  | inactive: 3.24%
63 | CN(C)S(=O)(=O)c1cc(C(=O)OCCn2cnc3c2c(=O)n(C)c(=O)n3C)ccc1Cl | inconclusive: 16.4 µM [inhibitor, partial curve, poor fit] | 
64 | CCN1C(=S)N[C@@H](c2ccccc2)C(C(=O)OC)=C1C | inconclusive: 0.0259 µM [activator, full curve, poor fit] | 
65 | Cc1cc2nc(CCN(Cc3cccnc3)C(=S)Nc3ccccc3)[nH]c2cc1C | inconclusive: 29.1 µM [inhibitor, single point] | 
66 | O=C(NC(=S)NCCc1ccccn1)c1ccccc1 | inconclusive: 23.1 µM [activator, single point] | 
67 | O=C(CCSc1ccccn1)Nc1ccc(Br)cc1 | inconclusive: 9.2 µM [activator, partial curve] | 
68 | CCN(CC)S(=O)(=O)c1ccc(N2CCOCC2)c(NC(=O)C2=COCCO2)c1 | inconclusive: 3.26 µM [inhibitor, partial curve] | 
69 | CCC(c1nnnn1C1CCCC1)N(Cc1cccs1)Cc1cc2cc(C)ccc2[nH]c1=O (centres undefined) | inconclusive: 23.1 µM [inhibitor, single point] | 
